Not every detail of the peptide structures is certain; ends, links or a residue may be inferred.
Test: Fibrillation assay (thioflavin T fluorescence)
Type: physicochemical
Conditions: 37° C.

CC[C@H](C)[C@@H]1NC(=O)CNC(=O)[C@H](CCCNC(=N)N)NC(=O)[C@H](CCCNC(=N)N)NC(=O)[C@@H]2CCCN2C(=O)CNC(=O)CNC(=O)CNC(=O)[C@H]([C@@H](C)O)NC(=O)[C@@H]2CCCN2C(=O)[C@H](CC(=O)O)NC(=O)[C@H]([C@@H](C)O)NC(=O)[C@H](Cc2ccc(O)cc2)NC(=O)[C@H](Cc2ccccc2)NC(=O)[C@H](Cc2ccccc2)NC(=O)CNC(=O)[C@H](CCCNC(=N)N)NC(=O)[C@H](CCC(=O)O)NC(=O)CNC(=O)[C@@H]2CSSC[C@@H](C(=O)N[C@@H](CC(N)=O)C(=O)O)NC(=O)[C@H](Cc3ccc(O)cc3)NC(=O)[C@H](CC(N)=O)NC(=O)[C@H](CCC(=O)O)NC(=O)[C@H](CC(C)C)NC(=O)[C@H](CCC(N)=O)NC(=O)[C@H](Cc3ccc(O)cc3)NC(=O)[C@H](CC(C)C)NC(=O)[C@H](CO)NC(=O)[C@@H]3CSSC[C@H](NC(=O)[C@H](CCC(N)=O)NC(=O)[C@H](CCC(=O)O)NC(=O)[C@H](C(C)C)NC1=O)C(=O)N[C@@H](CSSC[C@H](NC(=O)[C@H](CC(C)C)NC(=O)[C@H](Cc1c[nH]cn1)NC(=O)[C@H](CCC(N)=O)NC(=O)[C@H](CC(N)=O)NC(=O)[C@@H](NC(=O)[C@@H](N)Cc1ccccc1)C(C)C)C(=O)NCC(=O)N[C@@H](CO)C(=O)N[C@@H](Cc1c[nH]cn1)C(=O)N[C@@H](CC(C)C)C(=O)N[C@@H](C(C)C)C(=O)N[C@@H](CCC(=O)O)C(=O)N[C@@H](C)C(=O)N[C@@H](CC(C)C)C(=O)N[C@@H](Cc1ccc(O)cc1)C(=O)N[C@@H](CC(C)C)C(=O)N[C@@H](C(C)C)C(=O)N2)C(=O)N[C@@H](Cc1c[nH]cn1)C(=O)N[C@@H](CO)C(=O)N[C@@H]([C@@H](C)CC)C(=O)N3 [A8-His, B28-Asp, B29-Pro SCI]
fibrillation lag time: greater than 1 year

Reference: patent US8501440B2 (Case Western Reserve University, priority 2006, dated 2013)
